Measured values as given in PubChem BioAssay AID493014 (National Center for Advancing Translational Sciences (NCATS), 2011).
The other results are listed elsewhere or left out. Further columns of the screen follow, without active or inactive calls. Compounds called inactive in the main read-out are mostly missing here. The note in brackets gives the kind of curve behind each potency; many fits are weak.

Assay: qHTS Assay to Find Inhibitors of Chronic Active B-Cell Receptor Signaling
Conditions: ABC-DLBCL IkBa-CBG/CBR reporter, luminescence ratio (green luciferase fused to IkBa over red control in TMD8 lymphoma cells), 4 h
Method in brief: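 TMD8 human ABC-DLBCL cells with doxycycline-inducible IκBα–green luciferase fusion and unfused red luciferase, in 0.5% FBS medium; compounds up to 46 uM, 4 h at 37C. Green/red luminescence ratio, filter-overlap corrected, fitted to concentration-response curves.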

[1] = measured here: IkBa-CBG green luminescence
[2] = measured here: CBR red luminescence, cell number

Row | Compound | AC50 [1] | AC50 [2]
1 | Cc1ccc(NC(=O)CSc2nc(N)c3cc4c(nc3n2)CCCC4)cc1 | 23.1 µM [rising, partial curve, poor fit] | –
2 | CCn1nnnc1SCC(=O)N1CCN(c2ccccc2)CC1 | – | 11.2 µM [rising, single point]
3 | Clc1cccc(-n2ncc3c(NC4CCCCCC4)ncnc32)c1 | – | 0.794 µM [falling, full curve]
4 | CCc1ccc(/C=C2/C(=O)NC(=O)N2C(C)=O)cc1 | – | 3.55 µM [rising, full curve, poor fit]
5 | O=C(NCc1ccco1)c1ccc(COc2cccc3ccccc23)cc1 | – | 1.03 µM [falling, full curve]
6 | Cc1ccc(C)c(OCc2n[nH]c(=S)o2)c1 | – | 0.708 µM [rising, full curve, poor fit]
7 | CCN(C(=O)c1ccco1)c1nnc(-c2cccnc2)s1 | – | 7.94 µM [falling, partial curve, poor fit]
8 | O=C(NCc1ccccc1)c1cccc(OCC(=O)N2CCN(C(=O)c3ccco3)CC2)c1 | – | 10 µM [falling, partial curve]
9 | COc1ccccc1OCc1ccc(C(=O)OCC2CCCO2)o1 (configuration not stated) | – | 4.61 µM [falling, partial curve, poor fit]
10 | Cc1ccc(CN2C(=O)c3ccccc3NC2c2cc(Br)ccc2O)cc1 (configuration not stated) | – | 35.5 µM [falling, single point]
11 | Cc1ccc(CN2CCN(c3cccc4[nH]ccc34)CC2)cc1 | – | 1.26 µM [falling, full curve, poor fit]
12 | COC(CNC(=O)c1cc(S(=O)(=O)N2CCc3ccccc32)ccc1F)OC | – | 6.31 µM [rising, single point]
13 | Cc1noc(C)c1COc1ccc(C(=O)OCC(=O)NCc2ccccc2Cl)cc1 | – | 29.1 µM [rising, single point]
14 | CC(C)(C)OC(=O)N[C@H](C(=O)OC(C)(C)C)c1ccc(Br)cc1 | – | 20.6 µM [rising, partial curve, poor fit]
15 | COc1ccc(N=Cc2oc3ccc4ccccc4c3c2O)cc1 | – | 0.316 µM [falling, full curve]
16 | O=C(Nc1ccc(F)cc1)c1ccc(S(=O)(=O)NCc2cccnc2)cc1 | – | 3.55 µM [falling, single point]
17 | Cc1cccc([N+](=O)[O-])c1NC(=O)COC(=O)C1CCCO1 (configuration not stated) | – | 7.31 µM [rising, partial curve, poor fit]
18 | O=C(c1ccc(S(=O)(=O)N2CCOCC2)cc1)N1CCN=C1SCc1cccnc1 | – | 0.0891 µM [falling, full curve, poor fit]
19 | COc1ccc(CCN(C)CCCC(C#N)(c2cc(OC)c(OC)c(OC)c2)C(C)C)cc1OC (configuration not stated) | – | 29.1 µM [falling, single point]
20 | O=C(NCCSCc1ccccc1)c1ccc(C2SCC(=O)N2Cc2ccccc2)cc1 (configuration not stated) | – | 4.11 µM [falling, single point]
21 | CCN(CC)CC(O)COc1ccc2c(c1)c(C(C)=O)c(C)n2-c1ccccc1 (configuration not stated) | – | 20.6 µM [rising, single point]

Row | Compound | AC50 [1] | AC50 [2]
22 | Cc1nc(NCCOc2ccccc2)sc1C(=O)Nc1ccccc1 | – | 11.2 µM [falling, partial curve, poor fit]
23 | COc1ccccc1Nc1nc(N)nc(-c2cc3ccccc3o2)n1 | – | 0.259 µM [falling, full curve]
24 | O=[N+]([O-])c1ccc(-[n+]2ccc3ccccc3c2)c([N+](=O)[O-])c1 | 13 µM [rising, partial curve, poor fit] | 16.4 µM [falling, single point]
25 | O=C(/C=C/c1ccco1)NC(=S)Nc1ccc(Cl)cn1 | – | 29.1 µM [falling, single point]
26 | Cc1ccc(C(=O)N/N=C/c2ccc(-c3cccc(Cl)c3)o2)cn1 | – | 0.794 µM [falling, full curve]
27 | Cc1ccc(Nc2cnn(C34CC5CC(CC(CC(=O)O)(C5)C3)C4)c(=O)c2Cl)cc1 | – | 4.61 µM [falling, single point]
28 | CNC(=O)NC(=O)C(C)OC(=O)c1c(C)noc1C (configuration not stated) | – | 20.6 µM [rising, single point]
29 | N=c1c2c(-c3ccccc3)c(-c3ccccc3)n(Cc3ccccc3)c2ncn1CCO | – | 20 µM [falling, partial curve, poor fit]
30 | O=C(Nc1ccccc1)C(=O)Nc1cccnc1 | – | 1.58 µM [falling, full curve]
31 | NS(=O)(=O)c1cccc(NC(=O)c2cc3ccccc3o2)c1 | – | 20 µM [falling, single point]
32 | O=[N+]([O-])c1cccc(/C=C/c2ccc3cccc(O)c3n2)c1 | – | 35.5 µM [falling, single point]
33 | Cc1ccccc1C(=O)N1CCN(c2ccc(NC(=O)CSc3ccc(Cl)cc3)cc2)CC1 | – | 0.224 µM [falling, full curve, poor fit]
34 | O=C1C=C(NCc2ccccc2)c2ccccc2C1=O | – | 35.5 µM [falling, single point]
35 | Cc1ccc(CN2C(=O)CCC2C(=O)NCCN2CCN(c3cccc(Cl)c3)CC2)cc1 (configuration not stated) | – | 35.5 µM [falling, single point]
36 | OCCCCCN=c1cc(-c2ccccc2)oc2ccc(Cl)cc12 | – | 1.41 µM [rising, partial curve]
37 | O=C(CSc1nnc(N2CCCC2)n1-c1ccccc1Cl)N1CCN(c2ccccn2)CC1 | – | 2.31 µM [rising, partial curve]
38 | Cc1ccccc1C(=O)Nc1ccc(N2CCOCC2)nc1 | – | 8.91 µM [falling, partial curve]
39 | COc1cc(/C=C/C(=O)O)cc(Br)c1O | – | 12.6 µM [falling, single point]
40 | O=C(c1nn2c(C(F)(F)F)cc(-c3cccs3)nc2c1Br)N1CCCc2ccccc21 | – | 1.64 µM [falling, partial curve, poor fit]
41 | COc1cc2c(C(=O)N3CCN(c4cccc(Cl)c4)CC3)cn(CC(C)C)c(=O)c2cc1OC | – | 20.6 µM [falling, single point]

Reformatted: results already given.
Row	Compound	AC50 [1]	AC50 [2]
22	Cc1nc(NCCOc2ccccc2)sc1C(=O)Nc1ccccc1	–	11.2 µM [falling, partial curve, poor fit]
23	COc1ccccc1Nc1nc(N)nc(-c2cc3ccccc3o2)n1	–	0.259 µM [falling, full curve]
25	O=C(/C=C/c1ccco1)NC(=S)Nc1ccc(Cl)cn1	–	29.1 µM [falling, single point]
29	N=c1c2c(-c3ccccc3)c(-c3ccccc3)n(Cc3ccccc3)c2ncn1CCO	–	20 µM [falling, partial curve, poor fit]
30	O=C(Nc1ccccc1)C(=O)Nc1cccnc1	–	1.58 µM [falling, full curve]
31	NS(=O)(=O)c1cccc(NC(=O)c2cc3ccccc3o2)c1	–	20 µM [falling, single point]
33	Cc1ccccc1C(=O)N1CCN(c2ccc(NC(=O)CSc3ccc(Cl)cc3)cc2)CC1	–	0.224 µM [falling, full curve, poor fit]
34	O=C1C=C(NCc2ccccc2)c2ccccc2C1=O	–	35.5 µM [falling, single point]
35	Cc1ccc(CN2C(=O)CCC2C(=O)NCCN2CCN(c3cccc(Cl)c3)CC2)cc1 (configuration not stated)	–	35.5 µM [falling, single point]
36	OCCCCCN=c1cc(-c2ccccc2)oc2ccc(Cl)cc12	–	1.41 µM [rising, partial curve]
37	O=C(CSc1nnc(N2CCCC2)n1-c1ccccc1Cl)N1CCN(c2ccccn2)CC1	–	2.31 µM [rising, partial curve]
40	O=C(c1nn2c(C(F)(F)F)cc(-c3cccs3)nc2c1Br)N1CCCc2ccccc21	–	1.64 µM [falling, partial curve, poor fit]
